From article PMC4529171
For at least one entry, the source does not settle the construct or the ends of the probe. Where cells or extracts were used, other partners may take part.

Protein sequences, listed by entry. Tags and fused reporters are not part of them. Lines headed by an entry give the natural chain unless they say otherwise; changes in a name come on top.
UniProt P12956: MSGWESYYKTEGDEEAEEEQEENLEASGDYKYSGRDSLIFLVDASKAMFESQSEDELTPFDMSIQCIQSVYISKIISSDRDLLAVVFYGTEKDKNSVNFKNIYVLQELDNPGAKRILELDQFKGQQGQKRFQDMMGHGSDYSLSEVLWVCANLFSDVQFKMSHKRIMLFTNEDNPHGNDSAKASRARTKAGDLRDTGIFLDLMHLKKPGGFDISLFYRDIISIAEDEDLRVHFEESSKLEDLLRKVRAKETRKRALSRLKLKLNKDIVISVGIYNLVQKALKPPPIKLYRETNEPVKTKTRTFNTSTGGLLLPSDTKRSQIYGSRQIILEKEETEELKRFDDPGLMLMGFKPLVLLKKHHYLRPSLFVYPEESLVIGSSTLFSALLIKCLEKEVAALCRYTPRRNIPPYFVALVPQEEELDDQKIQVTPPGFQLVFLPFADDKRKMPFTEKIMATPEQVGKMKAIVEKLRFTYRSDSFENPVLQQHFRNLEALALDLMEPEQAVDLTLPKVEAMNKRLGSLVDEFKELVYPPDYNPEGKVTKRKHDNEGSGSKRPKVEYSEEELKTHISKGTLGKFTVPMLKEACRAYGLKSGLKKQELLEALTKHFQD
UniProt P13010: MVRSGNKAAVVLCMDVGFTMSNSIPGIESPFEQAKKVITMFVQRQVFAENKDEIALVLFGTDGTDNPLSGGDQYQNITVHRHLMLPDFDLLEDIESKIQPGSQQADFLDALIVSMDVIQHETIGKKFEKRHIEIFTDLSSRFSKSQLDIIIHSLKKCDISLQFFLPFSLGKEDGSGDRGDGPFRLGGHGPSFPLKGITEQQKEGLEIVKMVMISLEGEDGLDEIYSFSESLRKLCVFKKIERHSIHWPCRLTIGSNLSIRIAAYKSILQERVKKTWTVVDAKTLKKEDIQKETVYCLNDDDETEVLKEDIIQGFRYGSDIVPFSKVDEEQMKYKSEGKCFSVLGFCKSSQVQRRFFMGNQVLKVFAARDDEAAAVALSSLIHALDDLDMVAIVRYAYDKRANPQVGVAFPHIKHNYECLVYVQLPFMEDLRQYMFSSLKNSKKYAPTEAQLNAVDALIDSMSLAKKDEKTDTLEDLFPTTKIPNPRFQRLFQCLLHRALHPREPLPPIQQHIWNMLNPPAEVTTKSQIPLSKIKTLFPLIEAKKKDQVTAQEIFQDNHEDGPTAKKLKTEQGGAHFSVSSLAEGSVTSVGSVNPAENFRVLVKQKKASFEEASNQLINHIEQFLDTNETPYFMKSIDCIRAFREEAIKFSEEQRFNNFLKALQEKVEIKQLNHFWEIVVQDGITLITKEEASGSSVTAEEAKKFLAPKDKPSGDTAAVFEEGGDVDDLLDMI

Tests used:
[1] = target: Ku70 (endogenous, U87MG or 1321N1 lysate) (UniProt P12956); assay: pull-down (streptavidin aptoprecipitation, LC-MS/MS, Western blot); conditions: U87MG and 1321N1 lysate, 100 nM aptamer; Pull-down: lysate in PBS with 0.1% Triton X-100, 2.5 mg/ml protein, 100 nM biotin aptamer, 45 min at 4 C, beads washed in 0.1 M PBS pH 7.4. Kd values; protein in an extract; label: 5' biotin; folded or branched DNA
[2] = target: Ku80 (endogenous, U87MG or 1321N1 lysate) (UniProt P13010); assay: as above; conditions: U87MG and 1321N1 lysate, 100 nM aptamer; Pull-down: lysate in PBS with 0.1% Triton X-100, 2.5 mg/ml protein, 100 nM biotin aptamer, 45 min at 4 C, beads washed in 0.1 M PBS pH 7.4. Kd values; protein in an extract; label: 5' biotin; folded or branched DNA

Row | Sequence | binding result [1] | binding result [2]
1 | ACGTTACTCTTGCAACACCCAAACTTTAATAGCCTCTTATAGTTC [SA44 DNA] | binds | binds
2 | ACGTTACTCTTGCAACACAAACTTTAATAGCCTCTTATAGTTC [SA43 DNA] | binds | binds
